Earlier results as cited in PMC6162288, “On-chip spatiotemporal electrophysiological analysis of human stem cell derived cardiomyocytes enables quantitative assessment of proarrhythmia in drug development” (Scientific Reports, 2018).

How the values were obtained:
[1] = roughly the same for both drugs; ref Table 1; cited from earlier work
[2] = unbound therapeutic plasma concentration; cited from earlier work

## CCN(CC)CC(=O)Nc1c(C)cccc1C [Lidocaine, lidocaine]
[1]
  plasma protein-binding rate: 60–80%
[2]
  Unbound: Lidocaine 1,804–7,732[67] hERG: n.d. Nav1.5: 42,000–108,000[68] Cav1.2: n.d. nM
